No constants are given. Whether binding was seen depends on the method and setting. Where a sequence is shown, tags or fusion partners need not be part of it.
T1: GST-tagged RNF41 N-terminal domains (RNF41-RBC) (human) (UniProt Q9H4P4)
T1 sequence: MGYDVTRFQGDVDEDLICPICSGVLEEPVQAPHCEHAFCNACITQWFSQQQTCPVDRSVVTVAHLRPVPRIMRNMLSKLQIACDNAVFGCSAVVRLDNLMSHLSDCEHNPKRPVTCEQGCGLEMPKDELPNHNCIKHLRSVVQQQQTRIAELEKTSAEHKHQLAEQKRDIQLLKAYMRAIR

Sequences of proteins named here, by UniProt entry; tags and fusion partners are left off. Residues count along the entry.
UniProt Q6UXN8, residues 57-241: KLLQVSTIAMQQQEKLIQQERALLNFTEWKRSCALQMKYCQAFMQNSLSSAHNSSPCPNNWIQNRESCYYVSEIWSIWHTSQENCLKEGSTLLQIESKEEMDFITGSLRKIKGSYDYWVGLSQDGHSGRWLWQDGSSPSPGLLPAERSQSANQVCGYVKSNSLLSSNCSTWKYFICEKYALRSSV

T2: GST-tagged human RNF41 on the ProtoArray Human Protein MicroArray (human) (UniProt Q9H4P4)
T2 sequence: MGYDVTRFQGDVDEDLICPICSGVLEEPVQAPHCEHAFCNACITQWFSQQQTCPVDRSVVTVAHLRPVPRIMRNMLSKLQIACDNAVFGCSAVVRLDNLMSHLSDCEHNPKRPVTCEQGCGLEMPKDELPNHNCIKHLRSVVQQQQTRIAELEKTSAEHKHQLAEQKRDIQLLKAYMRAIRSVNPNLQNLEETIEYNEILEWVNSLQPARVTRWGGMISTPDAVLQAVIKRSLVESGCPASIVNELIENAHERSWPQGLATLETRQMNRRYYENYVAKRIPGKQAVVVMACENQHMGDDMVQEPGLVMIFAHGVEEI

T3: GST-tagged RNF41 C-terminal domain (RNF41-C) (human) (UniProt Q9H4P4)
T3 sequence: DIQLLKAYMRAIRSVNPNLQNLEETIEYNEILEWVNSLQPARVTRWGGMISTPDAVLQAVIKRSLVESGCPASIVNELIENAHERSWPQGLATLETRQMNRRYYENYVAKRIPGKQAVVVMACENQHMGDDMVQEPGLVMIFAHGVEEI

T4: GST-tagged full-length human RNF41 (RNF41-RBCC) (human) (UniProt Q9H4P4)
T4 sequence: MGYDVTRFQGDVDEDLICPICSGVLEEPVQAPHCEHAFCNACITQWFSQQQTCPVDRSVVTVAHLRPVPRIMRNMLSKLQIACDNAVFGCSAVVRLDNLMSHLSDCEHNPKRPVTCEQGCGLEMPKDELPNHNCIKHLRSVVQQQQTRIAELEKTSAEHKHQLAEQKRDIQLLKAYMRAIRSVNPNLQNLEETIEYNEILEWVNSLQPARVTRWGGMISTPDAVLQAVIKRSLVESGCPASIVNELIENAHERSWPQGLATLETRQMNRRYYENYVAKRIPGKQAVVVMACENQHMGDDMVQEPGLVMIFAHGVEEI

B1: Cire/DC-SIGN ectodomain (Cire-ecto) (domain or fragment, UniProt Q91ZX1 73-238)
chain: VKVYKIPSSQEENNQMNVYQELTQLKAGVDRLCRSCPWDWTHFQGSCYFFSVAQKSWNDSATACHNVGAQLVVIKSDEEQNFLQQTSKKRGYTWMGLIDMSKESTWYWVDGSPLTLSFMKYWSKGEPNNLGEEDCAEFRDDGWNDTKCTNKKFWICKKLSTSCPSK
modifications: enzymatically biotinylated with BirA
B2: FLAG-tagged mClec12A-ecto (domain or fragment, UniProt Q504P2 65-267)
chain: YTTLATEMIKSNQLQRAKEELQENVFLQLKHNLNSSKKIKNLSAMLQSTATQLCRELYSKEPEHKCKPCPKGSEWYKDSCYSQLNQYGTWQESVMACSARNASLLKVKNKDVLEFIKYKKLRYFWLALLPRKDRTQYPLSEKMFLSEESERSTDDIDKKYCGYIDRVNVYYTYCTDENNIICEETASKVQLESVLNGLPEDSR

Legend:
[1] = target: T1, GST-tagged RNF41 N-terminal domains (RNF41-RBC) (human); experiment: ELISA; plates coated with GST-RNF41-C, GST-RNF41-RBC or GST (10 μg/ml); FLAG-tagged Clec ectodomains 10 to 0.04 μg/ml in solution; detected with anti-FLAG HRP; both purified
[2] = target: T2, GST-tagged human RNF41 on the ProtoArray Human Protein MicroArray (human); experiment: peptide or protein array; biotinylated mClec9A-ecto or Cire-ecto hybridized to ProtoArray Human Protein MicroArray v4.1 of GST-tagged human proteins; detected with Streptavidin-Alexa Fluor 647; hits Z-score >3; both purified
[3] = target: T3, GST-tagged RNF41 C-terminal domain (RNF41-C) (human); experiment: ELISA; plates coated with GST-RNF41-C, GST-RNF41-RBC or GST (10 μg/ml); FLAG-tagged Clec ectodomains 10 to 0.04 μg/ml in solution; detected with anti-FLAG HRP; both purified
[4] = target: T4, GST-tagged full-length human RNF41 (RNF41-RBCC) (human); experiment: pull-down; GST or GST-RNF41 proteins on glutathione-sepharose; 1 μg/ml purified FLAG-tagged soluble Clec; 0.2% NP-40, 2% glycerol, 20 mM Tris-buffered saline pH 7.5; 4°C, 2 hr; anti-FLAG western blot; both purified

Molecule | binding [1] | binding [2] | binding [3] | binding [4]
FLAG-tagged recombinant human CLEC9A ecto-domains (hCLEC9A-ecto) (from UniProt Q6UXN8 57-241) (domain or fragment) | no binding (tested: 10 μg/ml) | – | – | –
B1 | – | no binding | – | –
B2 | no binding (tested: 10 μg/ml) | – | no binding (tested: 10 μg/ml) | no binding
